Source: PMC5696377
No constants are given. Whether binding was seen depends on the method and setting. For some of these results: Binding seen in cells or lysates may run through a third protein. Some results given as binding are weak or reduced against the parent protein; the word gives no strength. For some of these results: Where a sequence is shown, tags or fusion partners need not be part of it. One block for each binder: values may come before it.

Amino acid sequences for entries named in this document (tags omitted).
UniProt P25963: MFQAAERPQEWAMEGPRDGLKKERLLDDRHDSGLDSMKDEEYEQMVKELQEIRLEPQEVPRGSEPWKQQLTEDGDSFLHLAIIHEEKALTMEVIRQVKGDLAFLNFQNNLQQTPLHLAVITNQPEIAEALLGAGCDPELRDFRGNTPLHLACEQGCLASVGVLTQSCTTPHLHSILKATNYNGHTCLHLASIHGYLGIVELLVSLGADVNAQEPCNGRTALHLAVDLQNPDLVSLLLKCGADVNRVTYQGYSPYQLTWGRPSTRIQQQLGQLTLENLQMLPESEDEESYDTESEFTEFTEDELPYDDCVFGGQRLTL

Legend:
[1] = target: T1, Morgana/chp-1 (CHORDC1 gene product) (human (endogenous in MDA-MB-231, BT549)) (UniProt Q9UHD1); assay: co-IP; immunoprecipitation of Morgana from MDA-MB-231 or BT549 extracts (lysis buffer 25 mM Tris-HCl pH 8, 1 mM MgCl2), antibody overnight at 4 °C, protein G Sepharose, 10 washes, immunoblot; also done in MDA-MB-231 silenced for Hsp90 or cdc37
T1 sequence: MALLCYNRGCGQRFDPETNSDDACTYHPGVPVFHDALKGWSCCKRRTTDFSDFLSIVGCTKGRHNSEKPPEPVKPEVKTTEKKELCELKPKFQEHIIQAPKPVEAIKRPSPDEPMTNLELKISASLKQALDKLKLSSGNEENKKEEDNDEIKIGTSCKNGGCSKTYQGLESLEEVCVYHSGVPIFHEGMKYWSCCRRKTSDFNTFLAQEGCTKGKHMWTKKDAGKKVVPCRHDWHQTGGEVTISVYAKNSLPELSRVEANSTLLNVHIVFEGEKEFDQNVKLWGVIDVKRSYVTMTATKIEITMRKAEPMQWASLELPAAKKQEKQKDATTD

[2] = target: T1, Morgana/chp-1 (CHORDC1 gene product) (human (endogenous in MDA-MB-231, BT549)); assay: co-IP; immunoprecipitation with anti-Morgana antibody from selected gel filtration fractions (around 1000-900 kDa) of MDA-MB-231 extract, immunoblot
[3] = target: T2, IKKα (human (endogenous in MDA-MB-231, BT549)) (UniProt O15111); assay: co-IP; immunoprecipitation of IKKβ or IKKα, immunoblot; IKKβ immunoprecipitation from MDA-MB-231 control and Morgana-silenced cells
T2 sequence: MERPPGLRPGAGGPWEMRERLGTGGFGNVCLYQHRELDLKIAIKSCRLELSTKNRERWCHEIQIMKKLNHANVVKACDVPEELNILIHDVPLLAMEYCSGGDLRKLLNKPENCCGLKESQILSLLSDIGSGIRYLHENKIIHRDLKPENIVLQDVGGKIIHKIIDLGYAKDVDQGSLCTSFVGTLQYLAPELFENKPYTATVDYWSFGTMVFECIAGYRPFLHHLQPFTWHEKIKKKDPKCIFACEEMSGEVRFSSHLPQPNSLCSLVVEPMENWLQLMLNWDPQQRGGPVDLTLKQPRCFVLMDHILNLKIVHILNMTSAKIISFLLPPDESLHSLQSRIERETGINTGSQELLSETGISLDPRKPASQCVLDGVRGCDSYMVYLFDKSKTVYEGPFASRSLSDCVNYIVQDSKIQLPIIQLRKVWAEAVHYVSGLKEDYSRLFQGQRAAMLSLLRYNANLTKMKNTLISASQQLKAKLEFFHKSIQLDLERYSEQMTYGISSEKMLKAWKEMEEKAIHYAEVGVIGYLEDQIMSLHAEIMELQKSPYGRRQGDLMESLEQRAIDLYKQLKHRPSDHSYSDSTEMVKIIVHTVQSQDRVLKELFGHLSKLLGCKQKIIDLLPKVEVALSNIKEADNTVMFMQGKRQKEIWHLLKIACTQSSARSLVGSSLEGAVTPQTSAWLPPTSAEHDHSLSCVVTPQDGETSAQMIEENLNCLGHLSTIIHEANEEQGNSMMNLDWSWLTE

[4] = target: T3, IKKβ (human (endogenous in MDA-MB-231, BT549)) (UniProt O14920); assay: as above
T3 sequence: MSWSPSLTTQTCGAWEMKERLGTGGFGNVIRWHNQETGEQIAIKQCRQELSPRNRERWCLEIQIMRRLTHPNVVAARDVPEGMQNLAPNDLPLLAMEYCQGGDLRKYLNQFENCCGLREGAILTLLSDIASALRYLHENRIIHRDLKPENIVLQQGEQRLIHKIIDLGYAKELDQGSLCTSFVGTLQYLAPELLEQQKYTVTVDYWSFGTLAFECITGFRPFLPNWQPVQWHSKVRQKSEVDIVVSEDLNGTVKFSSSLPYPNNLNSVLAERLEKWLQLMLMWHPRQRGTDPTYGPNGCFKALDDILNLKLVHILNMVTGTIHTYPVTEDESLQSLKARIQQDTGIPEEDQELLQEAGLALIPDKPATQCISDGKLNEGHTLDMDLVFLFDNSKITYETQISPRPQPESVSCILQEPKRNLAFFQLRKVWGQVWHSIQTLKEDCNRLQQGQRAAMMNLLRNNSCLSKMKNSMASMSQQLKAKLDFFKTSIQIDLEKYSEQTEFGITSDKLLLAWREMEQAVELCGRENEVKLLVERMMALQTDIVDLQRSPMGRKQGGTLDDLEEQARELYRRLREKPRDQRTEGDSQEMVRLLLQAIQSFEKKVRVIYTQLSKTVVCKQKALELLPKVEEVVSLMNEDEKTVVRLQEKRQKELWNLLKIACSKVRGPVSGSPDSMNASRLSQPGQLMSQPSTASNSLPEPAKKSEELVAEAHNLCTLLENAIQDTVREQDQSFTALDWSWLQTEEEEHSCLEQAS

[5] = target: T2, IKKα (human (endogenous in MDA-MB-231, BT549)); assay: SEC; total protein extracts of MDA-MB-231 (control and shMORG1) on Superose 6 10/300 GL, 25 mM Tris-HCl pH 8.0, 1 mM MgCl2, 10% glycerol; fractions analysed by Western blot
[6] = target: T3, IKKβ (human (endogenous in MDA-MB-231, BT549)); assay: as above
[7] = target: recombinant IκBα (UniProt P25963); assay: far-Western, overlay or dot blot; 1 µg recombinant protein run on SDS-PAGE, transferred to nitrocellulose, denatured and renatured in AC buffer with falling guanidine-HCl; membrane incubated with MBP-Morgana overnight at 4 °C; detected with primary and secondary antibody; both purified

binding [1]: binds
binding [2]: binds
B1: IKKβ (enzyme, UniProt O14920 1-756)
chain: MSWSPSLTTQTCGAWEMKERLGTGGFGNVIRWHNQETGEQIAIKQCRQELSPRNRERWCLEIQIMRRLTHPNVVAARDVPEGMQNLAPNDLPLLAMEYCQGGDLRKYLNQFENCCGLREGAILTLLSDIASALRYLHENRIIHRDLKPENIVLQQGEQRLIHKIIDLGYAKELDQGSLCTSFVGTLQYLAPELLEQQKYTVTVDYWSFGTLAFECITGFRPFLPNWQPVQWHSKVRQKSEVDIVVSEDLNGTVKFSSSLPYPNNLNSVLAERLEKWLQLMLMWHPRQRGTDPTYGPNGCFKALDDILNLKLVHILNMVTGTIHTYPVTEDESLQSLKARIQQDTGIPEEDQELLQEAGLALIPDKPATQCISDGKLNEGHTLDMDLVFLFDNSKITYETQISPRPQPESVSCILQEPKRNLAFFQLRKVWGQVWHSIQTLKEDCNRLQQGQRAAMMNLLRNNSCLSKMKNSMASMSQQLKAKLDFFKTSIQIDLEKYSEQTEFGITSDKLLLAWREMEQAVELCGRENEVKLLVERMMALQTDIVDLQRSPMGRKQGGTLDDLEEQARELYRRLREKPRDQRTEGDSQEMVRLLLQAIQSFEKKVRVIYTQLSKTVVCKQKALELLPKVEEVVSLMNEDEKTVVRLQEKRQKELWNLLKIACSKVRGPVSGSPDSMNASRLSQPGQLMSQPSTASNSLPEPAKKSEELVAEAHNLCTLLENAIQDTVREQDQSFTALDWSWLQTEEEEHSCLEQAS

binding [3]: binds
binding [4]: binds
binding [5]: binds
binding [6]: binds
B2: Morgana/chp-1 (CHORDC1 gene product) (protein, UniProt Q9UHD1 1-332)
chain: MALLCYNRGCGQRFDPETNSDDACTYHPGVPVFHDALKGWSCCKRRTTDFSDFLSIVGCTKGRHNSEKPPEPVKPEVKTTEKKELCELKPKFQEHIIQAPKPVEAIKRPSPDEPMTNLELKISASLKQALDKLKLSSGNEENKKEEDNDEIKIGTSCKNGGCSKTYQGLESLEEVCVYHSGVPIFHEGMKYWSCCRRKTSDFNTFLAQEGCTKGKHMWTKKDAGKKVVPCRHDWHQTGGEVTISVYAKNSLPELSRVEANSTLLNVHIVFEGEKEFDQNVKLWGVIDVKRSYVTMTATKIEITMRKAEPMQWASLELPAAKKQEKQKDATTD

binding [7]: binds
B3: MBP-Morgana recombinant protein (protein, UniProt Q9D1P4 1-331)
chain: MALLCYNRGCGQRFDPEANSDDACTYHPGVPVFHDALKGWSCCKRRTTDFSDFLSIVGCTKGRHNSEKPPEPVKPEVKTTEKKELSELKPKFQEHIIQAPKPVEAIKRPSPDEPMTNLELKISASLKQALDKLKLSSGSEEDKKEEDSDEIKIGTSCKNGGCSKTYQGLQSLEEVCVYHSGVPIFHEGMKYWSCCRRKTSDFNTFLAQEGCTRGKHVWTKKDAGKKVVPCRHDWHQTGGEVTISVYAKNSLPELSQVEANSTLLNVHIVFEGEKEFHQNVKLWGVIDVKRSYVTMTATKIEITMRKAEPMQWASLELPTTKKQEKQKDIAD
